# These are yes or no findings as the source states them, for the method shown. In cells and extracts the contact can be indirect. Some results given as binding are weak or reduced against the parent protein; the word gives no strength.
# T1: Interferon Regulatory Factor (IRF)9 (mouse (endogenous in primary VSMC)), Q61179
# T1 chain: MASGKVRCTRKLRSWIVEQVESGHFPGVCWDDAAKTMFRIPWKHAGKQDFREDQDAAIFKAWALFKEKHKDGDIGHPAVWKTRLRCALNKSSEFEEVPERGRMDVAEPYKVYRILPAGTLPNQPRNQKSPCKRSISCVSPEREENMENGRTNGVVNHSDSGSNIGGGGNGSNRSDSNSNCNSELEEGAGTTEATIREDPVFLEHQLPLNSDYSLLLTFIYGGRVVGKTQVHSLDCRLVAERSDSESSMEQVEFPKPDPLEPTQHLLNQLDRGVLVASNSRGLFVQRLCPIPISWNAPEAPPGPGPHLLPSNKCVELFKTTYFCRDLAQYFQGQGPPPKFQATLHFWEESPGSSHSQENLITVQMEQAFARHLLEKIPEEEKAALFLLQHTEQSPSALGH
# T2: IRF1 (mouse (endogenous in primary VSMC)), P15314
# T2 chain: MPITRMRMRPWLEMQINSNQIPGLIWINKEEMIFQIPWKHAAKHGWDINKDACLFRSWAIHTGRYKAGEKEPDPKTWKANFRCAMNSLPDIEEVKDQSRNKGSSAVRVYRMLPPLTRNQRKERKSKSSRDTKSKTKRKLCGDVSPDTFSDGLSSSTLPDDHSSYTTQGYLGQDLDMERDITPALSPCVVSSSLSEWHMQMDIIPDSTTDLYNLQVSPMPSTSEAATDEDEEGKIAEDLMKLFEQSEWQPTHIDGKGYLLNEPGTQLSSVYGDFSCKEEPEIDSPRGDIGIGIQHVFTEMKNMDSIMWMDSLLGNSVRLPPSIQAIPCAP
# Experiments:
# [1] = molecular target: T1, Interferon Regulatory Factor (IRF)9 …; test: co-IP; lysates of primary WT mouse VSMC, untreated or treated with IFNα (8 h) or IFNγ (8 h); co-IP buffer 1% NP-40, 150 mM NaCl, 1 mM EDTA, 50 mM Tris HCl pH 7.5, 10% glycerol; immunoprecipitated with IRF9 or IRF1 antibodies overnight at 4°C, Dynabeads Protein A/G; Western blot with tSTAT1 and tSTAT2; settings: remark: other sources report otherwise
# [2] = molecular target: T2, IRF1 (mouse (endogenous in primary …)); test: as above; settings: remark: other sources report otherwise
binder,measurement,setting,value
"Signal Transducer and Activator of Transcription (STAT)1, P42225 1-749 (protein) MSQWFELQQLDSKFLEQVHQLYDDSFPMEIRQYLAQWLEKQDWEHAAYDVSFATIRFHDLLSQLDDQYSRFSLENNFLLQHNIRKSKRNLQDNFQEDPVQMSMIIYNCLKEERKILENAQRFNQAQEGNIQNTVMLDKQKELDSKVRNVKDQVMCIEQEIKTLEELQDEYDFKCKTSQNREGEANGVAKSDQKQEQLLLHKMFLMLDNKRKEIIHKIRELLNSIELTQNTLINDELVEWKRRQQSACIGGPPNACLDQLQTWFTIVAETLQQIRQQLKKLEELEQKFTYEPDPITKNKQVLSDRTFLLFQQLIQSSFVVERQPCMPTHPQRPLVLKTGVQFTVKSRLLVKLQESNLLTKVKCHFDKDVNEKNTVKGFRKFNILGTHTKVMNMEESTNGSLAAELRHLQLKEQKNAGNRTNEGPLIVTEELHSLSFETQLCQPGLVIDLETTSLPVVVISNVSQLPSGWASILWYNMLVTEPRNLSFFLNPPCAWWSQLSEVLSWQFSSVTKRGLNADQLSMLGEKLLGPNAGPDGLIPWTRFCKENINDKNFSFWPWIDTILELIKNDLLCLWNDGCIMGFISKERERALLKDQQPGTFLLRFSESSREGAITFTWVERSQNGGEPDFHAVEPYTKKELSAVTFPDIIRNYKVMAAENIPENPLKYLYPNIDKDHAFGKYYSRPKEAPEPMELDDPKRTGYIKTELISVSEVHPSRLQTTDNLLPMSPEEFDEMSRIVGPEFDSMMSTV",binding,[1],binds
same,binding,[2],no binding

# Reference: publication PMC6558219
